Data on 6 molecules can be found in article PMC2935449.

Protein sequences, listed by entry. Tags and fused reporters are not part of them.
UniProt Q9HFE8: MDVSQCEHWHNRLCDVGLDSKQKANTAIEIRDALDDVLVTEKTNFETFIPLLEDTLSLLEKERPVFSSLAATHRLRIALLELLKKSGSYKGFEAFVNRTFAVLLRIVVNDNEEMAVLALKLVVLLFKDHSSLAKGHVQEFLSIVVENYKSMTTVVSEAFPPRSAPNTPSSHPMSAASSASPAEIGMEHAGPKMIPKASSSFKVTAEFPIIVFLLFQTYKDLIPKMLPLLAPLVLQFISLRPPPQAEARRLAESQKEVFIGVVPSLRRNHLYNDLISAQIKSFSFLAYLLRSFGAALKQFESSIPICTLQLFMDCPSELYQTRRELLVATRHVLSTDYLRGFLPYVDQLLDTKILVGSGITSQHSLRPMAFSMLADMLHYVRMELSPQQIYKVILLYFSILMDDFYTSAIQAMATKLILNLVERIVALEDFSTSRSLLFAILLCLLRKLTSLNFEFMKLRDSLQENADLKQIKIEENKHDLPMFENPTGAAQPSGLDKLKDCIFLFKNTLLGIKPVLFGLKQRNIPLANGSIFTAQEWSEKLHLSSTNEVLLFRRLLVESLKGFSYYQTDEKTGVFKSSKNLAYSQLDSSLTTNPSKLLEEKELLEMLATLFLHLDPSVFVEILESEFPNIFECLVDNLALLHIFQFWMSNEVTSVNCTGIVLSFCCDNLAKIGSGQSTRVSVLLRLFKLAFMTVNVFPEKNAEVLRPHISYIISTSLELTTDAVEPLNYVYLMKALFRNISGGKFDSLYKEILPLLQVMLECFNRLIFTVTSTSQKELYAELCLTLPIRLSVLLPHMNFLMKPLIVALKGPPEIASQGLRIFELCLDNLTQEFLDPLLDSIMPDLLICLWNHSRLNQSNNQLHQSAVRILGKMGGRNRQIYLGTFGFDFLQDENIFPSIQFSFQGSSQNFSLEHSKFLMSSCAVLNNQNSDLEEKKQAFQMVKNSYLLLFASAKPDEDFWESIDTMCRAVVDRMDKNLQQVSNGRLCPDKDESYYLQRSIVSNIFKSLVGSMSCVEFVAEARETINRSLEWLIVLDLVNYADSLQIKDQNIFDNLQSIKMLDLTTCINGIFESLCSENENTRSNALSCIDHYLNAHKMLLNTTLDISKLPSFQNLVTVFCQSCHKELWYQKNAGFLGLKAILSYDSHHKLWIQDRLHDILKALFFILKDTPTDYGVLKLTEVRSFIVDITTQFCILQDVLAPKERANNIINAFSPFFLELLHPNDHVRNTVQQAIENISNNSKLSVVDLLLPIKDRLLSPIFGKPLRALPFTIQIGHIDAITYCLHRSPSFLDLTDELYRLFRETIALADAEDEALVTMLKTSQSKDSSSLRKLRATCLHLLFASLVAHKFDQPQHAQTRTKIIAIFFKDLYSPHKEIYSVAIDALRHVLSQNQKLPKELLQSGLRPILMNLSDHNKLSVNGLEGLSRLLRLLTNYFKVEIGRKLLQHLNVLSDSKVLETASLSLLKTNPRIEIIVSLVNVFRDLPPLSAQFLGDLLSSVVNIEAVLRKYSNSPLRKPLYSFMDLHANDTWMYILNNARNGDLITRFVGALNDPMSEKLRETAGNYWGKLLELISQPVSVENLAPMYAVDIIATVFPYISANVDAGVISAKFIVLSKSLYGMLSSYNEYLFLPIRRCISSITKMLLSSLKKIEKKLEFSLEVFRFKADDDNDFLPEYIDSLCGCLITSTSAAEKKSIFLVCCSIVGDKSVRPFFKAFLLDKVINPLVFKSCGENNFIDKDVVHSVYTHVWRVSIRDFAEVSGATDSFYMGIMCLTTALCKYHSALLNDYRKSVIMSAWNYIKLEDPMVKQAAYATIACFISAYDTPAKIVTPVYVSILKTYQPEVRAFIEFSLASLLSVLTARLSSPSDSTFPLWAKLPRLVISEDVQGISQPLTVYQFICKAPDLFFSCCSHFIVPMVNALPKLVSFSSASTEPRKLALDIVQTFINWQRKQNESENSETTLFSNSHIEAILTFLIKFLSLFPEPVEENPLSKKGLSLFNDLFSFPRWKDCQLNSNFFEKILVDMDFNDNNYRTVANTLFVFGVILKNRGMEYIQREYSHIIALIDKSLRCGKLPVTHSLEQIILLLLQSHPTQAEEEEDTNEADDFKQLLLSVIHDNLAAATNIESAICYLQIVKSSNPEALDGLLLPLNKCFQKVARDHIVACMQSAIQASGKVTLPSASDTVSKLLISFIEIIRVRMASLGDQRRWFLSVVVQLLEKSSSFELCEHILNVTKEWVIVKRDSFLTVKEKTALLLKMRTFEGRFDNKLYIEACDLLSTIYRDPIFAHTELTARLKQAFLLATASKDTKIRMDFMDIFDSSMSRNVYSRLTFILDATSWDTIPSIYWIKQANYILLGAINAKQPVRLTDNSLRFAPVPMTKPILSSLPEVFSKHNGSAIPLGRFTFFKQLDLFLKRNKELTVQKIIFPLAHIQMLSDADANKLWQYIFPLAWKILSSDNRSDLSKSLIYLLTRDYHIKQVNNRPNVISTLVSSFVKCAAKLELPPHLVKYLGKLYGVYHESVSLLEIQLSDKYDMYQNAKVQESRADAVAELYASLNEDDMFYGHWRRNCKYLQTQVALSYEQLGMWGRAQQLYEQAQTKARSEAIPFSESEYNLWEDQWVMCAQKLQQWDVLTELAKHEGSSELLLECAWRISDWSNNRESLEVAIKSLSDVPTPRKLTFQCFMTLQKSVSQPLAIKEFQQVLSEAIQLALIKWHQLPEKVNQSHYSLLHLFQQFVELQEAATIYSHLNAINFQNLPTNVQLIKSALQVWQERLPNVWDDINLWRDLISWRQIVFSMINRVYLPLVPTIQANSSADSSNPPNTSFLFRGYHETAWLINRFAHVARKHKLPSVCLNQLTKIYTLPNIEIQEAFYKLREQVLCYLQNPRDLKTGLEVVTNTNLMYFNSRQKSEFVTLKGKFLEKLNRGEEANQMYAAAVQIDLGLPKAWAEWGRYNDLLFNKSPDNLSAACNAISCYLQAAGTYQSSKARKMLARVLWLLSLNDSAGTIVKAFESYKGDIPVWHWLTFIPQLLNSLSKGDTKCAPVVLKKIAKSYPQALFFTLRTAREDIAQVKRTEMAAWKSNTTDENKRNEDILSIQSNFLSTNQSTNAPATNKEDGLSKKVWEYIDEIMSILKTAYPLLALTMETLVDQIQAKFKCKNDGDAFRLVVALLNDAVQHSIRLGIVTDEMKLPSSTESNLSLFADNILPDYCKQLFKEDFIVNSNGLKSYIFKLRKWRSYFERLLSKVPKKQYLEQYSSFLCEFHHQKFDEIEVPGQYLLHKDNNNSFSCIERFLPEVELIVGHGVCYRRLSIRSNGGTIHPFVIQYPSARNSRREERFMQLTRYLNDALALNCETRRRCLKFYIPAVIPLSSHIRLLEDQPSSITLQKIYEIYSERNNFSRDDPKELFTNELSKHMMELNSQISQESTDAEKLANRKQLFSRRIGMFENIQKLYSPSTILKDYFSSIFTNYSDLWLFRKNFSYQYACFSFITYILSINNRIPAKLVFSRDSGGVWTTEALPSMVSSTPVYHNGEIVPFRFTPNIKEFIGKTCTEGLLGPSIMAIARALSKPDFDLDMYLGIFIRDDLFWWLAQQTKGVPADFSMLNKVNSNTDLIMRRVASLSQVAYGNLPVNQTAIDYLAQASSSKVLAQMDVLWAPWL

These are yes or no findings as the source states them, for the method shown. Binding seen in cells or lysates may run through a third protein. A yes stands for co-enrichment or nearness to the bait. Other partners may have been found.

Test in all cases: affinity purification with mass spectrometry; bait endogenously TAP-tagged at its C-terminus, tandem affinity purification from native S. pombe lysate, co-purified proteins identified by 2D LC-MS/MS; duplicates, only proteins found in both replicates
The target in one assay is T1, Ubp8-TAP (S. pombe) (UniProt Q09738).
T1 sequence: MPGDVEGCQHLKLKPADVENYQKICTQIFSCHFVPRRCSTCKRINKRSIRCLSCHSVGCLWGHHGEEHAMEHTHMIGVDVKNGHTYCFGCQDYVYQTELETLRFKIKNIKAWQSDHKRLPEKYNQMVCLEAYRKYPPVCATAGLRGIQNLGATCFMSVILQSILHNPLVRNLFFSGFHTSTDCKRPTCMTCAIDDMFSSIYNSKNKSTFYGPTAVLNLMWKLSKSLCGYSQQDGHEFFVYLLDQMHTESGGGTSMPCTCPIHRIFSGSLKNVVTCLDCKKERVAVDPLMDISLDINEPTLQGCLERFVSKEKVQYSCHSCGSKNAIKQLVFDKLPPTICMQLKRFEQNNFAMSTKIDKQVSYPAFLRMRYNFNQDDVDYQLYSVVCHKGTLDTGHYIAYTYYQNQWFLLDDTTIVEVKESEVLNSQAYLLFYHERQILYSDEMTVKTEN

Another assay addresses T2, Uch2-TAP (S. pombe) (UniProt Q9UUB6).
T2 sequence: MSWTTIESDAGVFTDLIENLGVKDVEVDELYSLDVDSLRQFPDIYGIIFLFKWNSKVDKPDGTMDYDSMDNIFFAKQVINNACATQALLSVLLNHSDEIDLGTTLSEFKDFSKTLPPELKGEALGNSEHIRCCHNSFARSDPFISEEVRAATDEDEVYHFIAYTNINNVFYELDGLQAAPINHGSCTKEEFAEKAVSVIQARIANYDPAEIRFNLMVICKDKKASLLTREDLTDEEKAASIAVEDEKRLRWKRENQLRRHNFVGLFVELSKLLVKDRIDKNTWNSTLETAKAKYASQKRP

A further assay deals with T3, Ubp15-TAP (S. pombe) (UniProt Q9UTT1).
T3 sequence: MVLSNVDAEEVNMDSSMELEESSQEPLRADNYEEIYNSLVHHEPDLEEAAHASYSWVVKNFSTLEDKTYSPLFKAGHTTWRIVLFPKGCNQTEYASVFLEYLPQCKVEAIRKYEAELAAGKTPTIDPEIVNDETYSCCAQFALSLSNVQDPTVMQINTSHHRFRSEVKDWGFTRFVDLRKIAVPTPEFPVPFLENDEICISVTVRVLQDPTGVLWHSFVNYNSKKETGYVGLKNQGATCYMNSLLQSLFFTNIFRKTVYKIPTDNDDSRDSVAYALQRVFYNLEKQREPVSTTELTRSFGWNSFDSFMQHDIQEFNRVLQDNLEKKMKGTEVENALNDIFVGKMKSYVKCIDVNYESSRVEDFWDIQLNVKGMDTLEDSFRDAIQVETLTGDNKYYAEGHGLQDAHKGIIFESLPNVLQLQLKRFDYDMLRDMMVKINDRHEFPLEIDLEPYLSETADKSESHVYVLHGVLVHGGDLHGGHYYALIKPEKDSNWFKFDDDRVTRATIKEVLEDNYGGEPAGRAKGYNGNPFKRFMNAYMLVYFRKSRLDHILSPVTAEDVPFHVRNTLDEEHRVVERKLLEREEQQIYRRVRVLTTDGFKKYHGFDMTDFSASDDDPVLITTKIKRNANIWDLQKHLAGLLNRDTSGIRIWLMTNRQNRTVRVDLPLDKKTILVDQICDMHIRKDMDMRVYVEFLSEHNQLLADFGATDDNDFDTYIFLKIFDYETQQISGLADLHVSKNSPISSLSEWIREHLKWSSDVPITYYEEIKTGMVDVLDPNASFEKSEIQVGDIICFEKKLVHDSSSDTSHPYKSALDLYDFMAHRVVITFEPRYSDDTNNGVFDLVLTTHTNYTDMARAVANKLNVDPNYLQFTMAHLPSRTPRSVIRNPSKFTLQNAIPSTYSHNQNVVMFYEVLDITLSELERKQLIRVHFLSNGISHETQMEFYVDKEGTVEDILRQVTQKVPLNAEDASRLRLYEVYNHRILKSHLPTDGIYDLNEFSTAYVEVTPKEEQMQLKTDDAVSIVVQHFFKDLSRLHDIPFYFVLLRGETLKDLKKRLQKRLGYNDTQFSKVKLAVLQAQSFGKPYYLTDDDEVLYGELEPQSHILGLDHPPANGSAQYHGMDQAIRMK

Tra1 (from UniProt Q9HFE8 1-3661): in the assay with Ubp8-TAP (S. pombe), the binding result is given as “binds”.

B1: Rpn1301 (SPBC342.04) (protein, UniProt Q9Y7Y6 1-291)
chain: MSLITFKAGKLRRVPGTKLLRADPEKGYIVMNRDAYGLIHFQWAKRNDLENPEDDIIVFSSECTFEKVTECTTGRAYMLKYPSSAHSLFYWMQEASDDNDTSYAERINSYIKDQDLLDPARSDVATVSDMMEVDTVEQSEPIAQPTESSKESSEIGAPNSDEINSSEAVRNLLATISAQAGFGGSTVDLCEILKPSNLTDLLCQEGVIDRLMPYMPPDTPNNLEGVLAIVSSPQYAQALRSFSQALNSPGGVNIISALGLSLDESANPNEGGALQFLKAIARFVSRNNGSE
Consider B1, for which, in the assay with Uch2-TAP (S. pombe), the binding result is “binds”.

B2: Sgf29 (protein, UniProt Q9USW9 1-244)
chain: MVRPINAEEDVTSMWVKFHESLNPIRSSLIKQEECYKTVDGDDNPIEERIKACDAGIQTSEEQKKELEHTMQSLEMIINVLEKANEKPVITNSPLTRSRRNRGTSFTANTVTFTPGMSVAFKLPYTRHNEGGDWIQCIIIKVTGEGAKQRFEVQDPEPDDDGNAGQIYKTTANHLIQIPAKGTPLPPISPKTNVLARYPETTTFYRAEVIRTLPDGSCKLRFEGEEEVGKETVVERHLVLEYNG
On to B2, for which the binding entry in the assay with Ubp8-TAP (S. pombe) is “binds”.

B3: Sgf73 (protein, UniProt O94397 1-344)
chain: MLTEQQTLELFPENWERNEQVLLKYPDGLPKDVLADQRVDNTESQVKDEITSNITNQTQILLPADSFPQYGSYPNNSELDYVVCTKCDRPFLSEYIEDHHSSCNGIKPPKPQFEPVANSQVLNKDVNNGNNAPIKNGVKSTAKGSAGNHEKNSVNGQKNPEMPPKRRKTEENKKPTKSALPKKEASKKKNPKVKGPVDVEKQCGVLLPNGQMCARSLTCKTHSMSSKRAVPGRSQPYDVLLAACQKKNQVKIQRQILETAKESEDNQHQAPVDSDEEVSFIMNVLQKSGNQPLEQKVFLPVKRRHSYFRTRELIAAAFRHGEQGMQVTGTILGRVIPFSARQPL
B3: in the assay with Ubp8-TAP (S. pombe), the binding result is “binds”.

B4: Pob1 (protein, UniProt O74653 1-871)
chain: MASQRFVIALHSFPGKSSDELPLVEGRKYLLIKMDEEFGDGWWEGEDEQGNRGIFPASHVELISDERSDSSDSRRGKEDFSISTAEVTRSSLSSSRSTSSRSDKDSEKLYSNNSLSSSHSSILNGPLDSLSKPSVPSNFNSMFPSSKQEGPSPLLDNQPSSDLSNFNTIDADYNNASASTSAPATSASLKKVLSAEDSVRETITDIETALQNMSTSASRTPNDSSPLPYIENRPASSLAVSEKIQNVPNWSTEEVVEWLMNAGLGSVAPNFAENEITGEILLGLDSNVLKELNITSFGKRFEVLRKIQQLKDSYEQSLYEEYPQFAEPISVSQSSDSSSSIPKKSNDEAGGSPSKSSPTRPGFNDYVNRPTSVMPSLSNMIVSPDLDSSPSTDWNQYVIPPLATPSSRNSKSTQSAVPENVSRFDSNEPSATSPILKRSSPTDSISQNSGLPSRLTEPISSPSTSSIDVDKEGTSFPGLPYHSSKGNLYAPQPSSNVPTKFTGGASESSSVPPRPIPSAMKGKAPASAISIEALEELDPPKITTIDGESPSSISSRLPSSNLEQGSSSSVTKSPESMPDPSAKASSPVTSKGVSINEKSAVNNYATPLSKPQPKDTKGSKLGNTFVAPSPAASLPASPPVGTELKTRPTLRSVASSPLNKEPIGKRKSKRDIFGRQKVLPTGISEGLSNIPAKEAIKTADCHGWMRKRSDRYGVWKSRYFVLKGTRLSYYHSLNDASEKGLIDMTSHRVTKTDDIVLSGGKTAIKLIPPAPGAAKAAVMFTPPKVHYFTCENNEELHRWSSAFLKATVERDMSVPVLTTSRMPTISLSKAKELRTRPPSLLIDDENEANLTSSIGLKKNAKQKNKKSSKQK
Turning to B4, the binding result with Ubp15-TAP (S. pombe) is reported as “binds”.

B5: Bun107 (binding Ubp9 of 107 kDa) (protein, UniProt Q09731 1-962)
chain: MSVRKRYKVTYVLDSCNDQLGHRLDANCLVLGRYFSEQGSAPVTRALYSGGRDGQLFGWDIGYDYGKASQPLAKIQAHSAWVNDIALTHDSEGVISCSSDSTVKLWKPHVLNASCLSTIGEHTDYVKRVSIPKYSKSPLVASGGLDKRIIVWDYNVGQEVMRFEQLPDCSLVVGPRSGVYSLAANNNIIANGGLQKDIQLWDCVSKKRITDLVGHTDNVRDILISDDGRTILTASSDATIKLWSLRAQKCLFSFIAHSDSVWALYSEHPDLKVFYAGDRSGLITRTDIRNQPNNQSCTAICKQDAPVSDIVARQSFIWSTSRDGSILRWKDEPLFNQDVGAALSKHTSSHLSVSSDCPSRHSSDIRNHSCPTLYHDDAEDIYYDLHHTESYSNINLTKTPDYVIHGGIGLLKYRMLGDRRHVLTEDAVGNKCLWDILACKQAGEFDKSEDFEKIVQSLDTVQAIPRWASVNCLLGILAVTLDENHYMDAEIYADECPLLKVDSPSDKRINLGVWILKNLFREFIDAELHRDLKFRQNLDVVRSEAKKQIEAQREEARKGNVNMPSALSPLRIRSRPSPLSLPPEPLLSPTIDYSATPFPLEPPPESPGPSLQIPSNNPVYTNLTDTDSMMGAPDYFSIPARQNRNRKPHTEVVGSPTVVRTKEIIPPKVTREGSFMGRLKKLGRSKSSKSLQTDFMKASVERAASSRVFSTGTSVTSPQALSKTNNTVNNAANTENNTLAKDKQQTSEASSPGTPRELKTTGELIEDLHEQYVHFKDKDTVLSLMKPPNDDTFPMLNLSSQITVIISEESPEAGNSRDIYRSTLENMADDIDLLENIMPFWLGRLLLLNEFPSKTAPTVNFTLQPFPGSGLPLIVNENTRLSASAMLRAQKIMDYSYSKLSQQRKDVSSLQFRCKDVVVTPKMTLATVKARIWRSGDDVVFHYDVAPRSVSEIVDKTQSLNI
In the case of B5, the binding result in the assay with Ubp15-TAP (S. pombe) is reported as “binds”.
